# US20110212084A1
# These are yes or no findings as the source states them, for the method shown. Some results given as binding are weak or reduced against the parent protein; the word gives no strength.
# B1: Antibody 33GL (germlined IgG) (antibody, V domains shown)
# VH: EVQLLESGGGLVQPGGSLSLSCAAPGFTFSSYAMSWVRQAPGKGLEWVSAISGGSGGRTYYADSVKGRFTISKDNSKNTLYLQMNSLRAEDTAVYYCARHIAVAGTRGFDYWGRGTLVTVSS
# VL: SYELTQPPSVSVSPGQTASITCSGDKLGDTYASWYQQKPGLSPALVIYQDDKRPSGIPERFSGSNSGNTATLTISGTQAMDEADYYCLAWDTRTSGAVFGGGTKLTVL
# Target: cynomolgus IgE (recombinant chimaeric D12 variable region / cynomolgus IgE constant region) (cynomolgus monkey (constant region))
# Test: DELFIA epitope competition; unlabelled cynomolgus IgE competes with biotinylated human IgE for immobilised IgG
binder,measurement,value
B1,binding,binds
